For part of these data: For at least one entry, the source does not settle the construct or the ends of the probe.
How the values were obtained:
[1] = molecular target: PAAN/MIF (macrophage migration inhibitory factor) (Homo sapiens) (UniProt P14174); assay: EMSA; details: 2 uM MIF, 10 nM biotin-DNA, 10 mM MgCl2, on ice; effect of compound 121 on binding tested; PS30 sequence assigned from listing SEQ 1; purified recombinant protein; label: biotin (EMSA); single-stranded DNA
[2] = molecular target: PAAN/MIF (macrophage migration inhibitory factor) (Homo sapiens) (UniProt P14174); assay: enzyme reaction in vitro; details: purified recombinant protein, single-stranded DNA

The chains behind the UniProt entries cited, without tags or fusion partners. Where a name states a change or a piece, a line headed by the entry shows the natural chain unless it says otherwise.
UniProt P14174: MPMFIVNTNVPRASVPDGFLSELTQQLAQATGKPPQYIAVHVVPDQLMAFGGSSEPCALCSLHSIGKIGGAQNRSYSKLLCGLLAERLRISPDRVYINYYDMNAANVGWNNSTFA

Row | Sequence | binding result [1] | activity on this sequence ([2]; 4 uM MIF, 1 uM DNA, 10 mM Tris-Cl pH 7.0, 10 mM MgCl2, 37 C 1 h, label: biotin (EMSA)) | activity on this sequence ([2]; 5'-NH2, 4-8 uM MIF, 10 mM Tris-Cl pH 7.0, 10 mM MgCl2, 1 h, inhibited by compounds such as 56 and 121)
1 | CTCAGCCTCCCAAGTAGCTGGGATTACAGG [PS30] | binds | active | 
2 | TCCCAAGTAGCTGGGATTACAGGAAAAAA [RF substrate] |  |  | active
